Laboratory results: PubChem BioAssay AID686937 (Drosophila RNAi Screening Center, 2013)
The deposit covers about 23,000 reagents; this is a random part of those that have a named target and a result. 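Reduced-secretion tags in replicate 1 do not always agree with the z-scores; no criterion for assigning the tags was given.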 Names joined by + are all predicted targets of the reagent. Further read-outs or replicates are left out here. Not stated in the record: the amount of reagent.

- Screen: 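Genes whose loss weakens secretory pathway function in fly cells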 (primary screen)
- Cell system: Drosophila S2 cells expressing secreted horseradish peroxidase
- Reagent: long dsRNA against Drosophila genes
- Duration: about 5.5 days (5 days dsRNA, then 12 h reporter induction)
- Conditions: reporter expression induced after 5 days of dsRNA, read 12 h later; inducer not stated
- Measurement: 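Chemiluminescent measurement of peroxidase in the medium 12 h after reporter induction, following 5 days of dsRNA, given as a z-score per plate; higher means more secretion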
- Scale: z-score: higher = more reporter secreted into medium

Against CG7730 [DRSC10909] the deposit lists z-score, replicate 1 = 0.33.
For CG18675 [DRSC08536] the deposit lists z-score, replicate 1 = -0.87.
Silencing of CG7071 + Muted [DRSC16189] gave: z-score, replicate 1 = 0.37.
After knock-down of TpnC4 (Troponin C isoform 4) [DRSC04856], the record shows z-score, replicate 1 = -0.11.
CG7772 [DRSC20056] gave z-score, replicate 1 = 0.25.
Silencing of CG2540 [DRSC19856] gave: z-score, replicate 1 = 0.54.
Men (Malic enzyme) [DRSC12924] scored z-score, replicate 1 = 0.18.
Men (Malic enzyme) [DRSC16738] gave z-score, replicate 1 = 0.32.
With knock-down of Men (Malic enzyme) [DRSC22694], the screen gave z-score, replicate 1 = 1.65.
Depletion of CG4751 [DRSC02776] gave: z-score, replicate 1 = 0.32.
Against Hgsnat (Heparan-alpha-glucosaminide N-acetyltransferase) [DRSC18405], the values are z-score, replicate 1 = 0.36.
Depletion of CG6972 [DRSC16159] gave: z-score, replicate 1 = 0.38.
Knock-down of CG30412 [DRSC04564] resulted in: z-score, replicate 1 = 0.6.
Rpn6 (Regulatory particle non-ATPase 6) [DRSC07541] scored z-score, replicate 1 = -7.21; phenotype, replicate 1 = reduced secretion.
CG2604 [DRSC12313] gave z-score, replicate 1 = 0.44.
Against eIF3f2 (eukaryotic translation initiation factor 3 subunit f2) [DRSC04903] the deposit lists z-score, replicate 1 = -0.02.

Ordered by “z-score, replicate 1” (high to low): 3 of the entries above
CG30412 [DRSC04564] | z-score, replicate 1: 0.6
CG6972 [DRSC16159] | z-score, replicate 1: 0.38
Rpn6 (Regulatory particle non-ATPase 6) [DRSC07541] | z-score, replicate 1: -7.21; phenotype, replicate 1: reduced secretion
